Test results reported in article PMC10605370 (Biomolecules, 2023).
No constants are given. Whether binding was seen depends on the method and setting. In cells and extracts the contact can be indirect. Some binding calls cover weakened binding; strength is not graded here.

Chains of the proteins cited; added tags and fusions are not shown. Lines headed by an entry give the natural chain unless they say otherwise; changes in a name come on top.
UniProt P14416: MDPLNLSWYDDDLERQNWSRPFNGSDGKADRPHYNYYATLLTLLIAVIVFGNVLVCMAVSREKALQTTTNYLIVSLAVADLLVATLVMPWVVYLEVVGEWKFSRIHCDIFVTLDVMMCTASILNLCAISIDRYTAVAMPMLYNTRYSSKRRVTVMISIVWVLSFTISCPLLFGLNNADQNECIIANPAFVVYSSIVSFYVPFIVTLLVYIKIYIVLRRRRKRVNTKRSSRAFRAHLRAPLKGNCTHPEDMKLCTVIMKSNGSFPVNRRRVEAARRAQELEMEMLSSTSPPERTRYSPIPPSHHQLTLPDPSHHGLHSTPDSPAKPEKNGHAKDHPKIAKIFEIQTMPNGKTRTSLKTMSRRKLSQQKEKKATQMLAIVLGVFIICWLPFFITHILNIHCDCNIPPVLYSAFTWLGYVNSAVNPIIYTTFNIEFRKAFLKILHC
UniProt P61169: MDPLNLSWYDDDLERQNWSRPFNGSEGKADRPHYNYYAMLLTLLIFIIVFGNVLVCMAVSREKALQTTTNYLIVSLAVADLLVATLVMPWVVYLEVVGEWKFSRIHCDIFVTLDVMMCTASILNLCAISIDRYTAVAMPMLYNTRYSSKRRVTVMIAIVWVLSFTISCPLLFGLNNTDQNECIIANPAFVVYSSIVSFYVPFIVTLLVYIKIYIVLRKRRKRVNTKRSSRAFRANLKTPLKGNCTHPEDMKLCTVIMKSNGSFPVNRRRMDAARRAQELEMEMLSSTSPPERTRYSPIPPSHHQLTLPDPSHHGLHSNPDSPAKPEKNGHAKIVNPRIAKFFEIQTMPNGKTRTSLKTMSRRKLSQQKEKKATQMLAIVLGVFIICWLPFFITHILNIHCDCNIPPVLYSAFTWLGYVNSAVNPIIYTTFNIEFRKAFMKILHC
UniProt P25098: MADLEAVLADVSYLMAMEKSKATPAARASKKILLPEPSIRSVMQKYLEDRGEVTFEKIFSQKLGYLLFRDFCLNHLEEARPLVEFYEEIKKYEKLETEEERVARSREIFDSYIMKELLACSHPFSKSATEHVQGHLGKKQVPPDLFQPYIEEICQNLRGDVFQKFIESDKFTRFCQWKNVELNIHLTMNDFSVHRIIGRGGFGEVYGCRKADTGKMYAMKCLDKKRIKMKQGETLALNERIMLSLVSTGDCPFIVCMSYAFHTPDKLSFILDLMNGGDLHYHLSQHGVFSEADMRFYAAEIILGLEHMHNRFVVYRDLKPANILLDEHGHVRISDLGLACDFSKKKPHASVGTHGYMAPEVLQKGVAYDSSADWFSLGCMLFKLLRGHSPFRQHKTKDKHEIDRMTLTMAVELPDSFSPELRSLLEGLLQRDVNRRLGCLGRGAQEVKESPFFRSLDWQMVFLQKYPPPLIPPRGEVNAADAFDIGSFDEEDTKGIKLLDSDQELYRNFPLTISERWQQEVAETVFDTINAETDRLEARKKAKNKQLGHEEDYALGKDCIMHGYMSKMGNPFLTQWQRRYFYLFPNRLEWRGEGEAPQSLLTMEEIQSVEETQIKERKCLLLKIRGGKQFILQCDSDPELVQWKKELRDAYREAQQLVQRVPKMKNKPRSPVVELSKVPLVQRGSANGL
UniProt P32121: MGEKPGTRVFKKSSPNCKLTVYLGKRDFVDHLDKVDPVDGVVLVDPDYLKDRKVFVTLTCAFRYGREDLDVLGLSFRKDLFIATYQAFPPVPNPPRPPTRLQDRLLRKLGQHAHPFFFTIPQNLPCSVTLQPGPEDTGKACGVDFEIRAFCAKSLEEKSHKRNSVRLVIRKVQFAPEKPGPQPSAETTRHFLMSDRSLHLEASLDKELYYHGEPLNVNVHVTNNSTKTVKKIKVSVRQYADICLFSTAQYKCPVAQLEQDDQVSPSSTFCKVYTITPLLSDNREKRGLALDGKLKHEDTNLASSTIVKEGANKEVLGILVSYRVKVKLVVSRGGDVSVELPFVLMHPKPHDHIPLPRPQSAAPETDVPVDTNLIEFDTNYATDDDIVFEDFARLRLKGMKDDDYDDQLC

Tests used:
[1] = target: human D2 dopamine receptor, long isoform, fused to Rluc8 (D2R-Rluc8) (human) (UniProt P14416); experiment: FRET or BRET; GRK2 recruitment BRET in live HEK293 cells transfected with D2R-Rluc8 (donor) and GRK2-rGFP (acceptor), with or without compound 101; DPBS with 200 µM sodium metabisulphite, room temperature, 2 µM Prolume Purple; dopamine for 5 min
[2] = target: rat D2 dopamine receptor, long isoform, wild type, fused to Rluc8 (WT D2R-Rluc8) (rat) (UniProt P61169); experiment: as above
[3] = target: rat D2 dopamine receptor, long isoform, wild type, fused to Rluc8 (WT D2R-Rluc8) (rat) (UniProt P61169); experiment: FRET or BRET; β-arrestin2 recruitment BRET in live HEK293 cells (parental or GRK knock-out lines) transfected with D2R-Rluc8 (donor) and β-arrestin2-mVenus (acceptor), with or without GRK2, GRK3, GRK5, GRK6, K220R GRK2 or pcDNA, and with or without compound 101; DPBS with 200 µM sodium metabisulphite, room temperature, 5 µM coelenterazine h; dopamine for 10 min (20 min in Figure 7)

| binding [1] | binding [2] | binding [3] | Substance |
| --- | --- | --- | --- |
| binds | binds |  | GRK2-rGFP (from UniProt P25098 1-689) (enzyme) |
|  |  | binds | β-arrestin2-mVenus (from UniProt P32121 1-409) |
